Results are given in words; binding and its absence hold for the method and conditions named. In cells and extracts the contact can be indirect. Some entries that bind do so weakly or less than the wild type.
Target: E2F transcription factor 1 (E2F1) (human (endogenous in HCT-116)) (UniProt Q01094)
Assay: co-IP; HCT-116 cells lysed; 1.0-1.2 mg total protein incubated with antibody overnight, then 2 h with 20 uL beads at 4°C; western blot of the immunocomplex; the precipitating antibody is not stated

By UniProt entry, the sequences of proteins in these tests, tags left out. Where a name states a change or a piece, a line headed by the entry shows the natural chain unless it says otherwise.
UniProt Q01094: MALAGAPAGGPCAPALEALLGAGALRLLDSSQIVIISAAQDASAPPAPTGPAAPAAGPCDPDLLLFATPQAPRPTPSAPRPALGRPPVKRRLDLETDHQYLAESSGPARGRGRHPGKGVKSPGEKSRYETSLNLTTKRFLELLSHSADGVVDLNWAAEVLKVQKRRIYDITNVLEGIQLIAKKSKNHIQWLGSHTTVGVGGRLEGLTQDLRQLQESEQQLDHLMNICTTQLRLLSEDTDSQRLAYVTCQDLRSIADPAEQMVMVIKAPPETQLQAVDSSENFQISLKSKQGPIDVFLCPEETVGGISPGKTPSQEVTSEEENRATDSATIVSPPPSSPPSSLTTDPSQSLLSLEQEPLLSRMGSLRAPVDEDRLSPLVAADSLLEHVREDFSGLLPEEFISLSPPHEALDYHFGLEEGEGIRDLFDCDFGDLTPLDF

binding: binds
B1: RING Finger and WD Repeat Domain 3 (RFWD3) (protein, UniProt Q6PCD5 1-774)
chain: MAHEAMEYDVQVQLNHAEQQPAPAGMASSQGGPALLQPVPADVVSSQGVPSILQPAPAEVISSQATPPLLQPAPQLSVDLTEVEVLGEDTVENINPRTSEQHRQGSDGNHTIPASSLHSMTNFISGLQRLHGMLEFLRPSSSNHSVGPMRTRRRVSASRRARAGGSQRTDSARLRAPLDAYFQVSRTQPDLPATTYDSETRNPVSEELQVSSSSDSDSDSSAEYGGVVDQAEESGAVILEEQLAGVSAEQEVTCIDGGKTLPKQPSPQKSEPLLPSASMDEEEGDTCTICLEQWTNAGDHRLSALRCGHLFGYRCISTWLKGQVRKCPQCNKKARHSDIVVLYARTLRALDTSEQERMKSSLLKEQMLRKQAELESAQCRLQLQVLTDKCTRLQRRVQDLQKLTSHQSQNLQQPRGSQAWVLSCSPSSQGQHKHKYHFQKTFTVSQAGNCRIMAYCDALSCLVISQPSPQASFLPGFGVKMLSTANMKSSQYIPMHGKQIRGLAFSSYLRGLLLSASLDNTIKLTSLETNTVVQTYNAGRPVWSCCWCLDEANYIYAGLANGSILVYDVRNTSSHVQELVAQKARCPLVSLSYMPRAASAAFPYGGVLAGTLEDASFWEQKMDFSHWPHVLPLEPGGCIDFQTENSSRHCLVTYRPDKNHTTIRSVLMEMSYRLDDTGNPICSCQPVHTFFGGPTCKLLTKNAIFQSPENDGNILVCTGDEAANSALLWDAASGSLLQDLQTDQPVLDICPFEVNRNSYLATLTEKMVHIYKWE

— paper PMC8547426
